Laboratory results published in PubChem BioAssay AID248 (DTP/NCI, 2004).
The list is a part of this screen's results and no random one: it gathers tests that were run many times, whatever their T/C, doses with no T/C, and many T/C values between a quarter and a half above the control. Further doses and runs are listed elsewhere. T/C: endpoint of the treated group in % of that of the vehicle group. Some entries give survivors of the animals treated and no T/C: the source holds a T/C of zero for them, seemingly a mark for toxic or unscored doses. Some survivor counts are full or nearly so, which does not show that the dose was tolerated: the source hardly ever lists a survival T/C far under the control, and the zero likely stands for such cases as well. Survivors were counted at the toxicity check, usually on the fifth day, unless a day is given; later deaths do not show. Schedules are NCI's codes, taken here to give the interval after Q, in days (D) or hours (H), and the number of doses after X. Some entries hold several experiments; the results are listed from low to high. For survival time, the PubChem record calls one and a half times the control and up active, and a quarter to a half above the control has no call in these data; cut-offs in other NCI protocols can differ. Some schedules carry Z or #; the key to these is not given. Some T/C values carry the count of animals alive at the toxicity check (mostly the fifth day); where none is given, no animal had died by that day.

Tested on: L1210 leukemia ip in BDF1 mice, survival T/C
Experiment: NCI In Vivo Anticancer Drug Screen. Data for tumor model L1210 Leukemia (intraperitoneal) in B6D2F1 (BDF1) mice
Conditions: T/C endpoint: mean survival time, higher T/C = longer survival
[1] = dose: 100.0 mg/kg/injection, schedule: Q01DX009 (ip), vehicle: Klucel (hydroxypropylcellulose) (HPC)
[2] = dose: 400.0 mg/kg/injection, schedule: Q04DX003 (ip), vehicle: Klucel (hydroxypropylcellulose) (HPC)
[3] = dose: 400.0 mg/kg/injection, schedule: Q01DX009 (ip), vehicle: saline with Tween-80
[4] = dose: 200.0 mg/kg/injection, schedule: Q01DX001 (ip), vehicle: saline
[5] = dose: 400.0 mg/kg/injection, schedule: Q01DX001 (ip), vehicle: saline
[6] = dose: 200.0 mg/kg/injection, schedule: Q04DX003 (ip), vehicle: saline with Tween-80
[7] = dose: 400.0 mg/kg/injection, schedule: Q04DX003 (ip), vehicle: saline with Tween-80
[8] = dose: 150.0 mg/kg/injection, schedule: Q01DX001 (ip), vehicle: saline
[9] = dose: 300.0 mg/kg/injection, schedule: Q01DX001 (ip), vehicle: saline
[10] = dose: 100.0 mg/kg/injection, schedule: Q01DX009 (ip), vehicle: saline with Tween-80
[11] = dose: 200.0 mg/kg/injection, schedule: Q01DX009 (ip), vehicle: Klucel (hydroxypropylcellulose) (HPC)
[12] = dose: 200.0 mg/kg/injection, schedule: Q01DX009 (ip), vehicle: saline
[13] = dose: 400.0 mg/kg/injection, schedule: Q01DX009 (ip), vehicle: saline
[14] = dose: 50.0 mg/kg/injection, schedule: Q01DX009 (ip), vehicle: saline
[15] = dose: 100.0 mg/kg/injection, schedule: Q04DX003 (ip), vehicle: saline
[16] = dose: 200.0 mg/kg/injection, schedule: Q04DX003 (ip), vehicle: saline
[17] = dose: 400.0 mg/kg/injection, schedule: Q04DX003 (ip), vehicle: saline
[18] = dose: 400.0 mg/kg/injection, schedule: Q01DX009 (ip), vehicle: Klucel (hydroxypropylcellulose) (HPC)
[19] = dose: 200.0 mg/kg/injection, schedule: Q04DX002 (ip), vehicle: saline with Tween-80

OCCC[P+](c1ccccc1)(c1ccccc1)c1ccccc1
survivor count [1]: 6 of 6 | survivor count (dose: 200.0 mg/kg/injection, schedule: Q04DX003 (ip), vehicle: Klucel (hydroxypropylcellulose) (HPC)): 4 of 6 | survivor count [2]: 0 of 6

CCOC(=O)C(C#N)C1CCCCC1 (centres undefined)
survivor count (dose: 400.0 mg/kg/injection, schedule: Q01DX001 (ip), vehicle: saline with Tween-80): 3 of 3

N/C(=N\O)c1cccnc1
survivor count [3]: 0 of 6 | survivor count (dose: 400.0 mg/kg/injection, schedule: Q04DX003 (ip), vehicle: water): 3 of 6

O=C(O)c1ccc(C(Cl)(Cl)Cl)cc1
survivor count [2]: 0 of 6

On1ccc(N2CCOCC2)cc1=Nc1ccccc1
survivor count [4]: 0 of 6 | survivor count [5]: 0 of 6

CCCNC1(C(N)=O)CCN(Cc2ccccc2)CC1
survivor count [6]: 1 of 6 | survivor count [7]: 0 of 6

CCCCCC(C)NCCOC(=O)c1ccc(N)cc1 (centres undefined)
survivor count (dose: 150.0 mg/kg/injection, schedule: Q01DX001 (ip), vehicle: other): 0 of 6 | survivor count (dose: 300.0 mg/kg/injection, schedule: Q01DX001 (ip), vehicle: other): 0 of 6

CC(C)=CCC/C(C)=C/CO
survivor count [3]: 0 of 6

CCN(CC)CCSC(=O)C(O)(c1ccccc1)c1ccccc1
survivor count [8]: 3 of 6 | survivor count [9]: 0 of 6

S=c1nccc[nH]1
survivor count [10]: 2 of 3

C[C@]12CC[C@@H]3c4ccc(OCC(=O)O)cc4CC[C@H]3[C@@H]1CCC2=O
survivor count (dose: 300.0 mg/kg/injection, schedule: Q01DX009 (ip), vehicle: Klucel (hydroxypropylcellulose) (HPC)): 0 of 6

CCOP(=O)(OCC)ON1C(=O)c2cccc3cccc(c23)C1=O
survivor count (dose: 50.0 mg/kg/injection, schedule: Q01DX009 (ip), vehicle: Klucel (hydroxypropylcellulose) (HPC)): 1 of 3 | survivor count [1]: 0 of 3 | survivor count [11]: 0 of 3

CC(=O)Oc1cc(C(C)C)c(OCCN(C)C)cc1C
survivor count (dose: 100.0 mg/kg/injection, schedule: Q01DX009 (ip), vehicle: saline): 3 of 6 | survivor count [12]: 0 of 6 | survivor count [13]: 0 of 6

OCCN1CCN(CC/C=C2\c3ccccc3Sc3ccc(Cl)cc32)CC1
T/C (dose: 6.25 mg/kg/injection, schedule: Q01DX009 (ip), vehicle: saline): 130 % of control [5 of 6 alive] | survivor count (dose: 6.25 mg/kg/injection, schedule: Q03HX024 (ip), vehicle: saline): 0 of 6 | survivor count (dose: 25.0 mg/kg/injection, schedule: Q01DX009 (ip), vehicle: saline): 4 of 6 | T/C (dose: 25.0 mg/kg/injection, schedule: Q04DX003 (ip), vehicle: saline): 133 and 135 % of control | survivor count (dose: 32.0 mg/kg/injection, schedule: Q01DX009 (ip), vehicle: saline): 0 of 6 | survivor count [14]: 0 of 6 and 2 of 6 | survivor count (dose: 50.0 mg/kg/injection, schedule: Q04DX003 (ip), vehicle: saline): 0 of 4 | survivor count (dose: 64.0 mg/kg/injection, schedule: Q01DX009 (ip), vehicle: saline): 0 of 6 | survivor count (dose: 80.0 mg/kg/injection, schedule: Q04DX003 (ip), vehicle: saline): 4 of 6 | survivor count [15]: 0 of 4 | survivor count (dose: 128.0 mg/kg/injection, schedule: Q01DX009 (ip), vehicle: saline): 0 of 6 | survivor count [8]: 1 of 6 | survivor count (dose: 160.0 mg/kg/injection, schedule: Q04DX003 (ip), vehicle: saline): 1 of 6 | survivor count [16]: 0 of 4 | survivor count (dose: 256.0 mg/kg/injection, schedule: Q01DX009 (ip), vehicle: saline): 0 of 6 | survivor count [17]: 0 of 4

CCN(CC)CCOC(=O)N(c1ccccc1)c1ccccc1
survivor count [12]: 0 of 6 | survivor count [16]: 1 of 4 | survivor count [13]: 0 of 6 | survivor count [17]: 0 of 4

Cc1cc([N+](=O)[O-])ccc1P(=O)(O)O
survivor count [7]: 5 of 6

COc1ccnc(SCc2ccccc2)n1
survivor count [18]: 0 of 6

CN1CCCCC1c1ccccc1 (centres undefined)
survivor count [8]: 0 of 6 | survivor count [9]: 0 of 6

O=C1C(NCc2c(O)ccc3ccccc23)CON1C(c1ccccc1)(c1ccccc1)c1ccccc1 (centres undefined)
survivor count (dose: 150.0 mg/kg/injection, schedule: Q04DX003 (ip), vehicle: saline): 6 of 6

Cc1ccc2nc3c(nc2c1)-c1cccc2cccc-3c12
survivor count [10]: 6 of 6 | survivor count [7]: 6 of 6

CC1CC(C)/C(=N/N(C)C)C(C(O)CC2CC(=O)NC(=O)C2)C1 (centres undefined)
T/C (dose: 175.0 mg/kg/injection, schedule: Q01DX Z (ip), vehicle: carboxymethylcellulose (CMC)): 139 % of control

CCN(CC)C(C)(O)CN (centres undefined)
survivor count [5]: 1 of 4

O=C(O)C1CCCC[N-]1.O=C(O)C1CCCC[N-]1.O=C(O)C1CCCC[N-]1.O=C(O)C1CCCC[N-]1.[Cl][Rh][Cl] (centres undefined)
survivor count [12]: 4 of 6 | survivor count [13]: 0 of 6

C=CCNC(=S)Nc1cccc(C(C)O)c1 (centres undefined)
survivor count [13]: 1 of 6

Cc1ccc(CCCC#N)[nH]1
survivor count (dose: 400.0 mg/kg/injection, schedule: Q01DX001 (sc), vehicle: carboxymethylcellulose (CMC)): 1 of 4

NC(=O)C1(c2ccccc2)CC1
survivor count [13]: 3 of 6

CCN(CC)CCOc1ccccc1-c1nc2ccccc2s1
survivor count [11]: 1 of 6 | survivor count [18]: 0 of 6

CNC(=O)Oc1cccc(C)c1
survivor count [10]: 3 of 6 | survivor count (dose: 200.0 mg/kg/injection, schedule: Q01DX009 (ip), vehicle: saline with Tween-80): 2 of 6 | survivor count [3]: 0 of 6

c1ccc(C[N+]23CCN(CC2)CC3)cc1
survivor count [15]: 4 of 6 | survivor count [16]: 0 of 6 | survivor count [17]: 0 of 6

CCOC(=O)Cc1ccccc1
T/C (dose: 100.0 mg/kg/injection, schedule: Q04DX003 (ip), vehicle: saline with Tween-80): 126 % of control | T/C [6]: 139 % of control | T/C [7]: 137 % of control

CCCCCCCCCCCCCCCCCC(=O)C(C)(C)C
survivor count (dose: 100.0 mg/kg/injection, schedule: Q01DX001 (ip), vehicle: Klucel (hydroxypropylcellulose) (HPC)): 3 of 3

OCC1OC(n2cc(I)c3cncnc32)C(O)C1O (centres undefined)
survivor count (dose: 100.0 mg/kg/injection, schedule: Q01DX005 (ip), vehicle: saline): 2 of 6 | survivor count (dose: 200.0 mg/kg/injection, schedule: Q01DX005 (ip), vehicle: saline): 3 of 6

CN1Cc2ccccc2-c2ccccc2C1
survivor count [8]: 0 of 6 | survivor count [9]: 0 of 6

c1cncc(-c2nnc(-c3cccnc3)o2)c1
survivor count (dose: 25.0 mg/kg/injection, schedule: Q04DX002 (ip), vehicle: saline with Tween-80): 3 of 3 | survivor count (dose: 100.0 mg/kg/injection, schedule: Q04DX002 (ip), vehicle: saline with Tween-80): 1 of 3

CN(CO)c1nc(N(C)CO)nc(N(C)CO)n1
T/C [14]: 140 % of control

O=[N+]([O-])c1cc([N+](=O)[O-])c2sc3ccccc3c2c1
survivor count [19]: 3 of 3

CCCCCc1cc[n+](CC(O)c2ccccc2)cc1 (centres undefined)
survivor count [4]: 0 of 4 | survivor count [5]: 0 of 4

CC(C)CC(B1OCCO1)(C1CCCCC1)C1CCCCC1
survivor count [3]: 1 of 6

C#CCCCCC#[C][Hg][C]#CCCCCC#C
survivor count [8]: 1 of 6 | survivor count [9]: 1 of 6

CCCCNC(C)(C)CS
survivor count [15]: 3 of 6 | survivor count [16]: 0 of 6 | survivor count [17]: 0 of 6

CC(=O)C(C#N)c1ccccc1 (centres undefined)
survivor count [1]: 1 of 6

COC(=O)c1ccccc1OC(=O)Nc1ccc(SC)cc1
T/C [19]: 125 % of control

O=C(N/N=C\c1ccc(Cl)cc1)c1ccccc1
survivor count [7]: 3 of 6
